According to doi:10.1101/2022.05.07.491029:
Results are given in words; binding and its absence hold for the method and conditions named. Binding seen in cells or lysates may run through a third protein.

Molecular target: HSV-1 gB-Sm (herpes simplex virus 1 (strain KOS)) (UniProt P06437)
Assay: split reporter

EBV gH-Lg/gL (from UniProt P03231 19-706; P03212 23-137) (complex)
binding: no binding
